PubChem BioAssay AID651640 (Broad Institute, 2012)
Screen size: about 350,000 compounds; about 6,000 (1.7%) were called active. The shares of active, inactive and inconclusive entries below differ from those in the screen. Rule as the data show it: active = CPE inhibition above about 20% (passing the limit was not always enough); inconclusive = no clear call, values can overlap the other calls; tested in BHK-21 cells.

assay: protection of cells from dengue 2 killing – plate reader, single concentration, primary screen (AID 651640); settings: DENV2-infected cells, cytopathic effect rescue, at 9.99 µM, stronger effect = higher value;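 also: 0% = median of neutral control wells and 100% = median of positive control wells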

| SMILES | CPE inhibition |
| --- | --- |
| C[C@@H]1CN([C@H](C)CO)C(=O)c2cc(C#Cc3cccnc3)cnc2O[C@H]1CN(C)Cc1ccccc1 | inactive: -9.01% |
| CCC(C)CCN1CCN=C1N(C)C (configuration not stated) | inconclusive: 23.1% |
| COc1ccc(C=O)cc1Cn1cnc2c(cnn2C)c1=O | inactive: 2.64% |
| O=C(C[C@@H]1CC[C@H](NC(=O)c2ccccc2)[C@H](CO)O1)NCCc1ccncc1 | inactive: -1.93% |
| Cc1cc(C)c(S(=O)(=O)NCc2ccccn2)cc1C | inactive: -1.88% |
| O=C(CSc1nnc(-c2ccncc2)o1)Nc1cc(Cl)ccc1C(=O)O | active: 39.1% |
| C[C@@H]1CCCCO[C@@H](CN(C)C(=O)Cc2ccccc2)[C@H](C)CN([C@@H](C)CO)C(=O)c2cc(NC(=O)c3ccncc3)ccc2O1 | inactive: -5.06% |
| O=C(O)c1ccccc1NC(=O)c1cc(-c2ccccc2)nc2ccccc12 | inconclusive: 23.9% |
| COc1ccc(CN(C)C[C@H]2Oc3ccc(NC(=O)Cc4ccccc4)cc3CC(=O)N([C@@H](C)CO)C[C@@H]2C)cc1 | inconclusive: 23.8% |
| CCCNC(=O)N1CC2(CN(CC3CCCCC3)C2)c2c(n(C)c3cc(OC)ccc23)[C@H]1CO | inactive: -10.8% |
| C(=Cc1cnc2ccccc2n1)c1ccc2c(c1)OCO2 | inactive: 5.85% |
| C[C@H](O)[C@@H]1C(=O)N2CCc3c([nH]c4c(-c5ccccc5)cccc34)[C@@H]2C[C@@H]1N(C)CC1CCCCC1 | inconclusive: 53% |
| CSc1c(-c2ccccn2)c(N)nn1C(=O)C1CC1 | inactive: 5.58% |
| CCOC(=O)[C@]12CCC=C1N(Cc1ccccc1)C(=O)[C@H](CC(=O)N1CCCC1)C2 | active: 29.8% |
| COc1ccc(S(=O)(=O)N2CCOCC2)cc1NC(=O)c1ccncc1 | inconclusive: 39.2% |
| N#CCCNS(=O)(=O)c1ccc(C(=O)OCC(=O)Nc2ccc3c(c2)OCO3)cc1 | inconclusive: 24.9% |
| C[C@@H]1CN([C@@H](C)CO)C(=O)c2cc(NC(=O)Nc3ccc(F)cc3)ccc2O[C@@H]1CN(C)S(=O)(=O)c1ccccc1 | inconclusive: 34.9% |
| C[C@H]1CCCCO[C@H](CN(C)C(=O)Nc2ccc(F)cc2)[C@@H](C)CN([C@@H](C)CO)C(=O)c2cc(NC(=O)Nc3ccc(F)cc3)ccc2O1 | active: 45.5% |
| Cc1ccc(S(=O)(=O)Nc2ccc3c(c2)CC(=O)N([C@@H](C)CO)C[C@@H](C)[C@@H](CN(C)C(=O)Nc2cccc4ccccc24)O3)cc1 | inactive: 9.26% |
| C[C@H]1CN([C@@H](C)CO)C(=O)c2cccc(NC(=O)C3CCCCC3)c2O[C@H]1CN(C)C(=O)Nc1ccc(C(F)(F)F)cc1 | active: 26.8% |
| O=C(O)C[C@H]1C[C@H]2c3cc(NC(=O)NC4CCCC4)ccc3O[C@H]2[C@H](CO)O1 | active: 35.5% |
| C=CCc1ccccc1Oc1cc(OC)nc(N)n1 | inactive: -0.464% |
| c1ccc(CSCc2ccccc2)cc1 | inconclusive: 37.6% |
| CC(C)c1ccc(OC(=O)c2ccc3c(=O)n4c(nc3c2)CCC4)cc1 | inactive: -2.66% |

Molecules above with an aryl thioether with sulfur outside any ring:

| SMILES | CPE inhibition |
| --- | --- |
| O=C(CSc1nnc(-c2ccncc2)o1)Nc1cc(Cl)ccc1C(=O)O | active: 39.1% |
| CSc1c(-c2ccccn2)c(N)nn1C(=O)C1CC1 | inactive: 5.58% |

The list goes on.

| SMILES | CPE inhibition |
| --- | --- |
| Cc1noc(C)c1NC(=O)Nc1cccc2c1O[C@@H](CN(C)S(=O)(=O)c1cn(C)cn1)[C@@H](C)CN([C@@H](C)CO)C2=O | active: 26.6% |
| COCCN(C(=S)Nc1cccc(C)c1)C(C)c1cccs1 (configuration not stated) | active: 30.4% |
| C/C=C/c1ccc([C@@H]2[C@@H](CO)N(C(=O)C3CC3)C23CN(S(=O)(=O)CC)C3)cc1 | inconclusive: 40.5% |
| Cc1ccc(S(=O)(=O)N(C)C[C@@H]2Oc3ccc(NC(=O)c4ccncc4)cc3C(=O)N([C@H](C)CO)C[C@H]2C)cc1 | active: 30.6% |
| CCOc1ccc(C(C)=O)cc1COC(=O)c1ccc2c(c1)NC(=O)CS2 | inconclusive: 25.5% |
| NC(=O)COC(=O)c1ccc(S(=O)(=O)NCc2ccco2)cc1 | inconclusive: 20.3% |
| CCOC(=O)c1ccc(S(=O)(=O)N2CCC(N3CCCCC3)CC2)cc1 | active: 32.1% |
| Cc1ccc(NC(=C(C#N)C#N)c2ccccc2)cc1 | inconclusive: 29.4% |
| COc1cc(/C=C2/SC(=O)NC2=O)ccc1OC(=O)c1ccco1 | inactive: -1.45% |
| C[C@@H]1CN([C@H](C)CO)C(=O)CCCn2cc(nn2)CO[C@@H]1CN(C)Cc1cccc(C(=O)O)c1 | inactive: -4.12% |
| COCCNC(=O)c1cc(S(=O)(=O)N2CCOCC2)ccc1SCc1cccc(OC)c1OC | inconclusive: 24.8% |
| Cc1cc2c(cc1S(=O)(=O)N1CCN(c3cccc(C(F)(F)F)c3)CC1)OCC(=O)N2 | active: 31.6% |
| COc1ccc(-c2ccc3c(c2)O[C@H](CN(C)CC2CCOCC2)[C@@H](C)CN([C@H](C)CO)S3(=O)=O)cc1 | inactive: -8.07% |
| COC(=O)/C=C/c1cnc[nH]1 | active: 50.9% |
| COC(=O)[C@]12CCCCC=C1N(Cc1ccccc1)C(=O)[C@H](CC(=O)N1CCCCC1)C2 | inconclusive: 47.4% |
| C[C@H](CO)N1C[C@H](C)[C@H](CN(C)CC2CC2)Oc2cc(-c3cccc(C#N)c3)ccc2S1(=O)=O | inactive: 3.63% |
| O=C(CSc1nc2ccsc2c(=O)n1Cc1ccc(C(=O)O)cc1)NCC1CCCO1 (configuration not stated) | inconclusive: 35.7% |
| CCC(=O)N1CC2(C1)[C@@H](c1ccccc1)[C@@H](CO)N2CC1CCOCC1 | inactive: -4.51% |
| Cc1ccccc1NC(=O)Nc1ccc2c(c1)C(=O)N(C)[C@H]1CC[C@H](CC(=O)NCC3CC3)O[C@@H]1CO2 | inconclusive: 84.7% |
| C[C@H](CO)N1C[C@H](C)[C@@H](CN(C)C(=O)C2CCCCC2)Oc2ncc(C#CC3(O)CCCC3)cc2C1=O | inconclusive: -2.43% |
| O=C(C(=O)N1CCC(CNC(=O)c2ccccc2F)CC1)c1cc2ccccc2o1 | inconclusive: 23.6% |
| CC(C)NC(=O)N(C)C[C@H]1OCCCC[C@H](C)Oc2ccc(NC(=O)Nc3ccc(C(F)(F)F)cc3)cc2C(=O)N([C@H](C)CO)C[C@@H]1C | inconclusive: 37.6% |
| Cc1ccc(-c2cnc3c(c2)C(=O)N([C@@H](C)CO)C[C@@H](C)[C@H](CN(C)C(=O)c2ccncc2)O3)cc1 | inconclusive: -3.8% |

An excerpt of these results, tab-delimited:
SMILES	CPE inhibition
C[C@H](CO)N1C[C@H](C)[C@H](CN(C)CC2CC2)Oc2cc(-c3cccc(C#N)c3)ccc2S1(=O)=O	inactive: 3.63%
O=C(CSc1nc2ccsc2c(=O)n1Cc1ccc(C(=O)O)cc1)NCC1CCCO1 (configuration not stated)	inconclusive: 35.7%
